Patent publication US20210315937A1, “METHODS OF TREATING INFLAMMATION” (University of South Florida, priority 2020, published 2021)
At least one structure is not confirmed: it was looked up by name or label, or the drawing left a doubt.

Legend:
[1] = test system: mouse microglia (IMG) cells; assay: Ibal immunofluorescence staining in LPS stimulated IMG cells; assay type: cell-based
[2] = test system: mouse microglia (IMG) cells; assay: qPCR of pro- and anti-inflammatory mRNA expressions in LPS stimulated IMG cells; assay type: cell-based; details: vs LPS

`CCc1ccc(CCOc2ccc(CC3SC(=O)NC3=O)cc2)nc1` (stereo not shown) [PG, pioglitazone] was tested, and the “number of activated cells” value [1] was “reduced”, the “Ibal expression (intensity, immunofluorescence)” value ([1]; Ibal = activation marker for microglia) was “reduced intensity of Ibal expression” and the CCL20 gene expression ([2]; 24 h after treatment) was “decreased significantly”. For the same molecule, the IL-6 gene expression ([2]; 24 h after treatment) was “decreased significantly”, the TNFα gene expression ([2]; 24 h after treatment) was “decreased significantly” and the IL-10 gene expression [2] was “increased the gene expressions significantly”. For the same molecule, the PPARγ gene expression [2] was “increased the gene expressions significantly”.
